Values quoted from earlier work in patent US20250283018A1, “TOILET RIM BLOCKS WITH SCENT CHANGE” (SYMRISE AG, priority 2021, published 2025).
Where two headings read alike, the source gives them in different places.

Bp. [° C.] (Table 1, components of MARINA): 213.3 °C | Bp. [° C.] (Table 2, components of PEACH): 213.3 °C
SMILES: CCCCCCCCCO [ALKOHOL C 9]
